Data taken from ChEMBL document CHEMBL3988442, “University of Dundee, Small-Polar-MMV Screening Library” (2021).

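Whole-parasite assay of Trypanosoma brucei over 72 hours; the read-out is not stated. Compounds at 30 µM. Direction is inferred from retests: higher values go with stronger inhibition. Values scatter widely below zero; nearly all retest evidence comes from the higher of the two concentrations used. Of about 64,000 compounds tested this way, about 940 (1.5%) reached 50% or more in at least one test.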

Values are the deposited “Percent Effect”, in %. The controls that fix the scale are not given in the record; negative values are as filed. The compounds are a random part of those screened.

Compound,effect
CC(C)C(NC(N)=O)C(=O)N1CCN(c2ccccc2Cl)C(=O)C1 (stereo unspecified),-17.57
COc1cc2[nH]c(=O)c(CN3CCCC(CO)C3)cc2c(OC)c1OC (stereo unspecified),2.333
CCS(=O)(=O)N1CCN(C(C)(C)CO)CC1,-11.85
Cc1cc2ccncc2n1CC1(O)CCN(C(=O)c2cccnc2)CC1,-15.7
COc1ncc(C2(O)CCN(Cc3cccs3)CC2)c(OC)n1.Cl,10.29
CC1(C2CCN(CCCC(=O)O)CC2)CN(Cc2ccccc2)C(=O)O1 (stereo unspecified),-11.83
COCCn1c(=O)n(Cc2ccc(Cl)s2)c2cc(C(=O)O)ccc21,-54.28
O=C(c1ccc2c(c1)COC2)N1CCN(CC2CC2)CC1,-41.34
CC(=O)NCC(=O)N1CCc2nc(C)nc(C)c2CC1,-66.85
Cc1noc(C)c1CN(C)C(=O)c1nc(N2CCCC2)ncc1Cl,-39.57
O=C(O)C(F)(F)F.[H][C@@]12CN(Cc3c(C)noc3C)C[C@]1([H])CN(C(=O)c1cnccn1)C2,-43.22
Cc1cc(CN2CCCC2c2noc(C)n2)no1 (stereo unspecified),-4.163
O=C(Nc1cccc(N2CCN(CC3CC3)CC2)c1)N1CCCC1,-13.75
[H][C@@]12CCN(C(=O)CCc3csc(N)n3)C[C@@]([H])(CC1)N2C,-45.47
Cl.Cl.O=C(CN1CCN(CC(O)C2CC2)CC1)NCc1ccccc1Cl (stereo unspecified),-15.94

Once more, the final 2:

{"compound": "[H][C@@]12CCN(C(=O)CCc3csc(N)n3)C[C@@]([H])(CC1)N2C", "effect": -45.47}
{"compound": "Cl.Cl.O=C(CN1CCN(CC(O)C2CC2)CC1)NCc1ccccc1Cl", "stereo": "stereo unspecified", "effect": -15.94}